This is an account of results in article PMC8880450.

The chains behind the UniProt entries cited, without tags or fusion partners.
UniProt P03466: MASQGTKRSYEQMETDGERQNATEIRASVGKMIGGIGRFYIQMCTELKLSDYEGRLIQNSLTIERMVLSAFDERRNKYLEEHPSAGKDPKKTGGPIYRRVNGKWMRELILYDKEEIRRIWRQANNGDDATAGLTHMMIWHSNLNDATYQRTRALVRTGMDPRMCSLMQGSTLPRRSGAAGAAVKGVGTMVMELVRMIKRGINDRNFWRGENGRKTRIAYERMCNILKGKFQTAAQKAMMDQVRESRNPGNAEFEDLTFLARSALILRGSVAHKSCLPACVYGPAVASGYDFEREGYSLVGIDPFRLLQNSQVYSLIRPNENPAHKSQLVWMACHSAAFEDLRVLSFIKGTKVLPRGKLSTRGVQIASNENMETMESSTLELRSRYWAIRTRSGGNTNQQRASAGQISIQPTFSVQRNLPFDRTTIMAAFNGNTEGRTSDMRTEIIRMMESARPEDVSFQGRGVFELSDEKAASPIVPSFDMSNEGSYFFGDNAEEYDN

The target in this experiment is Nucleoprotein (NP) of influenza A virus A/Puerto Rico/8/34 (PR8) H1N1, made in infected cells (Influenza A virus A/Puerto Rico/8/34 (H1N1)) (UniProt P03466). The experiment is described as follows: affinity purification with mass spectrometry.

These are yes or no findings as the source states them, for the method shown. In cells and extracts the contact can be indirect. Here binding means that the protein was enriched with, or labelled near, the bait; the list need not be complete.

With “Heterogeneous ribonucleoprotein A1 (hnRNPA1), endogenous in A549 cells (from UniProt P09651-1 1-372)”, the binding entry is “binds”.
